# Measured values from patent US20070166547A1, “Use of a layer consisting of hydrophobic linear, or two-dimensional polycyclic aromatics as a barrier layer or an encapsulation and electric components constructed with a layer of this type and comprising organic polymers” (priority 2003, published 2007).
# How the values were obtained:
# [1] = test system: metabolism of nitrogen oxide; experiment: Morphine abstinence model: nitrites and nitrates NOX− in blood plasma, liver and brain; format: in vivo, rats Wistar; details: morphine alone
# Procedure: (§1) The experiments were carried out on rats in series of 7 animals on each compound according to the invention. Non-morphinized animal with not administered with compounds according to the invention were used as a control group. […] Then the rats were decapitated, the blood from somnolent arteries was collected in test tubes with solution EDTA as an anticoagulant, centrifuged at 1500 g for 15 minutes at 4° C.
# To estimate the intensity of metabolism of nitrogen oxide in rats, quantitative determination of stable metabolites of nitrogen oxide—nitrites and nitrates NOX^− in the blood plasma, supernatanates of the liver and thymus gland, a study was conducted by a spectrometric method, and in the brain supernatanates by a […] method.
# The spectrometric method is based the reaction of nitrites with the Griss reagent (a mixture of 2% solution of sulfanilamide and 0.2% N-(1-naphthyl)ethylene diamine. At the first step the nitrite reacts with sulfanilamide with formation of diazonium salt, and then with the second component to form azo dye with an adsorption maximum at 540 nm. For reduction of nitrates into nitrites, a fermentative method was used with bacterial reductase nitrate (Grisham M. B. et al., 1995). The samples of plasma and supernatant of the liver deproteinizated at 100° C. for 5 minutes incubated for 30 minutes at 37° C. in 50.0 mM of HEPES pH 7.4 in the presence of 0.2 unit/ml of Aspergillus reductase nitrate, 5.0 mkM of FAD and 0.1 mM of NAD-Ph. At the end of the reaction lactate dehydrogenase and pyruvate were added for isolation of NAD-Ph interfering with the Griss reaction. Then the Griss reagent was added and after 10-minute incubation the light absorption of the samples was measured at 540 nm. To amount of NOX^− was calculated using sodium nitrate as a standard.
# The fluorometric method is based on calculation of the nitrite level by the intensity fluorescence of 2,3-diaminonaphthotriazole, a product of reaction of 2,3-diaminonaphthalene (DAN) and nitrite in an acidic medium (Misko T. R., Schilling R. J., Salvemini D. et al. “A fluorometric assay for the measurement of nitrite of biological samples”. Anal. Biochem., 1993, v. 214, p. 11-16). […]
# 280 mM of NaOH were added for stabilization of the fluorescence of the formed 2,3-diaminonaphthotriazole. The fluorescence intensity was measured in the spectrofluorimeter Hitachi F-3000 at a wavelength of excitation of 365 nm and an emission of 405 nm. The concentration of NOX^− in the brain was calculated by means of a standard solution of sodium nitrate.
# [2] = test system: indicator enzymes in blood plasma; experiment: Morphine abstinence model: indicator enzymes AST, ALT, γ-GTP in blood plasma; format: in vivo, rats Wistar; details: morphine alone, 6 days intraperitoneal
# Procedure: as §1
# To estimate possible hepatoprotective action of the compounds according to the invention under conditions of development of an oxidizing stress in the liver cells, effect of these compounds on the most important biochemical blood indexes, in particular, on the content in blood plasma of indicator enzyme of aspartateaminotransferase (AST), alanineaminotransferase (ALT), γ-glutamiletranspeptidase (γ-GTP) was investigated. The content of enzymes was estimated by their catalyzing activity in blood plasma.
# The activity of AST, ALT and γ-GTP was determined by means of diagnostic sets DiaSys, Germany.
compound,measurement,setting,value
"CN1CC[C@]23c4c5ccc(O)c4O[C@H]2[C@@H](O)C=C[C@H]3[C@H]1C5 [Morphine, reference compound]","Nitrites in blood plasma, Control + Morphine",[1],12.12 ± 0.61 mkmol/ml
same,"Nitrites in brain, Cortex of cerebrum, Control + Morphine",[1],5.31 ± 0.29 nmol/mg of protein
same,"Nitrites in brain, Mesencephalon, Control + Morphine",[1],9.41 ± 1.20 nmol/mg of protein
same,"Nitrites in liver, Control + Morphine",[1],0.259 ± 0.012 nmol/mg of protein
same,"ALT, Ci, mE/l, control + Morphine",[2],116.12 ± 110.44 mE/l
same,"AST, Ci, mE/l, control + Morphine",[2],238.201 ± 14.71 mE/l
same,"γ-GTP, Ci, mE/l, control + Morphine",[2],16.80 ± 13.32 mE/l
